Results as given in US20020046426A1, “Application of carbonyl compounds in the process of tanning hides” (RHODIA BRASIL LTDA., priority 1999, published 2002).

Assay: Residual chrome in the tanning bath after pre-treatment of hides with the carbonyl compound and chrome tanning

In the case of `CC(=O)CC(C)(C)O` [diacetone alcohol], the “chromium in residual bath” value (Example 2: 3% diacetone alcohol for 2 hours, bath pH 5.5 to 5.7, 6% basic chrome sulfate, 13 hours, no pickling) is reported as 0.04%, the “chrome in residual bath” value (Example 3: 2% diacetone alcohol for 2 hours, bath pH 5.5 to 6.0, 4% basic chrome sulfate, 15 hours, no pickling) is reported as 0.026% and the “chrome in residual bath” value (Example 4: 0.1% formic acid, 2% diacetone alcohol for 2 hours, bath pH 4.0 to 4.2, 4% basic chrome sulfate, 13 hours) is reported as 0.04%. The “chrome in residual bath” value (Example 5: 1700 kg hide, 2% diacetone alcohol for 2 hours, 4.5% basic chrome sulfate, 8 hours, then 45° C. and 5 hours) was 0.08%.
